# Measured values published in PubChem BioAssay AID445 (National Center for Advancing Translational Sciences (NCATS), 2006).
# Some of the results follow. Shown are side measurements of this screen, not its main read-out; they come without a call. Compounds called inactive in the main read-out are mostly missing here. Words in brackets tell the shape of the fitted curve; partial curves, single points and poor fits give uncertain potencies.
# Assay: IkB Signaling
# Conditions: ABC-DLBCL IkBa-CBG/CBR dual luciferase ratio (green luciferase fused to IkBa over red control in OCI-Ly3 lymphoma cells), 4 h; measured here: control luc red channel unless noted
# In short: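 In this assay, an IκBα–CBG68 fusion accumulates when IKK-driven degradation is blocked; native CBR normalizes for cell number. OCI-Ly3 cells were treated 4 h with compound and doxycycline, then green and red light read after Chroma-Glo addition.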
row,SMILES,AC50
1,O=C(Cc1ccc(F)cc1)NCc1nc2cccnc2n1Cc1ccc(F)cc1,"39.8 µM [rising, single point]"
2,FC(F)(F)c1cccc(N2CCN(Cc3nnc(-c4ccc5c(c4)OCO5)o3)CC2)c1,"20 µM [falling, partial curve]"
3,CSc1cccc(NC(=O)Nc2ccccc2)c1,"10 µM [falling, partial curve]"
4,CC(C)(C)C1CCc2c(sc(NC(=O)CCC(=O)O)c2C(=O)Nc2ccccc2C(F)(F)F)C1 (stereo not drawn),"20 µM [falling, partial curve]"
5,CCc1ccc2c(c1)-c1ccccc1S(=O)(=O)N2CC(=O)N1CCC(C)CC1,"12.6 µM [falling, partial curve]"
6,CC1CCN(S(=O)(=O)c2ccc3c(c2)N(CC(=O)N2CCN(c4ccccc4)CC2)C(=O)CO3)CC1,"1.58 µM [falling, partial curve]"
7,COc1ccccc1C(=O)Nc1nc2nc(C)c(Cc3ccccc3)c(=O)n2[nH]1,"10 µM [falling, partial curve]"
8,COc1cccc(Cn2c(CNS(=O)(=O)c3ccc4c(c3)CCCC4)nc3cccnc32)c1,"1.26 µM [rising, full curve]"
9,CCOC1=NC(C(=O)O)c2ccccc2/C(=C(/C)Cl)N1 (stereo not drawn),"31.6 µM [falling, single point]"
10,COc1ccc(O)c(-c2c(-c3ccc(Cl)cc3)n[nH]c2C)c1,"15.8 µM [falling, partial curve]"
11,Cc1ccc(Nc2cc(C(=O)NCc3cccs3)c3ccccc3n2)c(C)c1,"3.16 µM [falling, partial curve]"
12,Cc1ccccc1N(CC(=O)Nc1ccc(F)cc1)S(C)(=O)=O,"0.316 µM [falling, full curve]"
13,COc1ccc(Nc2ncc3c(n2)CCN(C(=O)OC(C)(C)C)C3)cc1,"12.6 µM [falling, single point]"
14,CCOC(=O)CC(=O)CSc1nnc2c(n1)[nH]c1ccccc12,"20 µM [falling, single point]"
15,CCOc1ccccc1C(=O)N(Cc1cccs1)c1ccc(Cl)cc1,"25.1 µM [falling, partial curve]"
16,O=C(Nc1ccccc1)c1cn(-c2ccccc2)nc1-c1ccccc1,"20 µM [falling, single point]"
17,Cc1ccc(-c2nc3cc(C)ccc3o2)cc1,"3.16 µM [falling, partial curve]"
18,COc1cccc(N2CCN(S(=O)(=O)c3ccc4nc(-c5ccccc5)[nH]c4c3)CC2)c1,"5.01 µM [falling, partial curve]"

# Rewritten with bars between the fields: part of the list above.
row | SMILES | AC50
9 | CCOC1=NC(C(=O)O)c2ccccc2/C(=C(/C)Cl)N1 (stereo not drawn) | 31.6 µM [falling, single point]
10 | COc1ccc(O)c(-c2c(-c3ccc(Cl)cc3)n[nH]c2C)c1 | 15.8 µM [falling, partial curve]
